{"source": "patent US9133262B2", "about": "(Ipsen Pharma S.A.S., priority 1996, dated 2015)", "experiment": "general procedure: Boc solid-phase peptide synthesis; Benzhydrylamine-polystyrene resin; diisopropylcarbodiimide", "conditions": "whole synthesis, scale 0.5 mmole"}
{"substance": "H2-D-β-Nal-Cpa-Tyr-D-Trp-Lys-Val-Phe-Thr-NH2", "values": [{"measurement": "isolated mass", "result": 170, "unit": "mg"}]}
